# Results as given in patent US8580478B2, “Latent acids and their use” (BASF SE, priority 2010, dated 2013).
# Experiment: Photosensitivity (Dose to Clear) in ArF model positive tone resist formulation
# Conditions: ArF laser exposure; 2 parts PAG per 100 parts binder polymer in PGMEA; 120 nm film; post exposure bake 120° C. 1 min; 1 min development; smaller dose = more sensitive
row,Structure (SMILES),Dose to Clear (E0) [mJ/cm^2]
1,O=C(CC1CC2CCC1C2)OCC(F)C(F)(F)S(=O)(=O)O (centres unmarked) [Example 3],1.8
2,O=S(=O)(O)C(F)(F)C(F)CO (centres unmarked) [Example 9],2.1
3,COC(C)CCOC(=O)OCC(F)C(F)(F)S(=O)(=O)O (centres unmarked) [Example 10],2.1

# Experiment: Mobility of acid generated from PAG, bilayer method (thickness loss)
# Conditions: thickness loss of bilayer after exposure, post-exposure bake 110° C. 1 min and development, normalized with TPS nf; smaller number = lower acid mobility
row,Structure (SMILES),Normalised mobility
1,CC12CCC(C(=O)OCC(F)C(F)(F)S(=O)(=O)O)(OC1=O)C2(C)C (centres unmarked) [Example 4],0.40
2,O=C(OCC(F)C(F)(F)S(=O)(=O)O)C1C2CC3OC(=O)C1C3C2 (centres unmarked) [Example 6],0.30
3,O=C1CCC(C(=O)OCC(F)C(F)(F)S(=O)(=O)O)N1 (centres unmarked) [Example 8],0.21
4,O=C(OCC(F)C(F)(F)S(=O)(=O)O)OC1C2CC3C(=O)OC1C3C2 (centres unmarked) [Example 11],0.41
5,CC(=O)N1CCN(C(=O)OCC(F)C(F)(F)S(=O)(=O)O)C1=O (centres unmarked) [Example 21],0.40
6,CCCC(=O)N1CCN(C(=O)OCC(F)C(F)(F)S(=O)(=O)O)C1=O (centres unmarked) [Example 22],0.40
7,CCCS(=O)(=O)N1CCN(C(=O)OCC(F)C(F)(F)S(=O)(=O)O)C1=O (centres unmarked) [Example 24],0.34
8,CCOC(=O)NC1CCC(CC2CCC(NC(=O)OCC(F)C(F)(F)S(=O)(=O)O)CC2)CC1 (centres unmarked) [Example 28],0.36
9,CC12CCC(C(=O)OCC(F)C(F)(F)S(=O)(=O)O)(OC1=O)C2(C)C (centres unmarked) [Example 32],0.41
10,CS(=O)(=O)N1CCN(C(=O)OCC(F)C(F)(F)S(=O)(=O)O)C1=O (centres unmarked) [Example 36],0.25
11,CS(=O)(=O)N1CCN(C(=O)OCC(F)C(F)(F)S(=O)(=O)O)C1=O (centres unmarked) [Example 41],0.28
